Paper PMC5193075 (The Journal of Pharmacology and Experimental Therapeutics, 2017)

Experiment: Unbound drug fraction in cell culture medium by rapid equilibrium dialysis
Format: in vitro ADME
Settings: bovine, bovine serum albumin-containing cell culture medium

- fraction unbound: 0.88
Compound: CCN(CC)CC(=O)Nc1c(C)cccc1C [Lidocaine, lidocaine]
